Data published in PubChem BioAssay AID256 (DTP/NCI, 2004).
The list shows only some results of the screen, not a fair sample: it gathers tests that were run many times, whatever their T/C, doses with no T/C, and many T/C values between a quarter and a half above the control. Other doses and runs of a compound stand elsewhere. T/C is the treated group as % of the vehicle group. Some entries give survivors of the animals treated and no T/C: the source files T/C as zero there, which appears to mark a toxic dose or a test without result, not a measured value. Some doses without a T/C left all or most animals alive at the check, yet need not have been tolerated: survival well below the control is almost never listed, so the zero probably covers shortened survival too. Survivors were counted at the toxicity check, usually on the fifth day, unless a day is given; later deaths do not show. Schedule codes are those of the source, taken here to give the interval after Q, in days (D) or hours (H), and the number of doses after X. Some entries were tested several times; the values are given in rising order. For survival time, the PubChem record calls one and a half times the control and up active, and a quarter to a half above the control has no call in these data; cut-offs in other NCI protocols can differ. Some T/C values carry the count of animals alive at the toxicity check (mostly the fifth day); where none is given, no animal had died by that day. Additions like (4×) count equal records among those shown.

Tested on: CD2F1 mice, L1210 leukemia ip, survival T/C
Experiment: NCI In Vivo Anticancer Drug Screen. Data for tumor model L1210 Leukemia (intraperitoneal) in CD2F1 (CDF1) mice
Details: higher T/C = longer survival
How it was run: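 Tumor-bearing mice (transplanted tumor) were split into treated and vehicle control groups, and the measured endpoint of each treated group was divided by that of its vehicle controls.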

[1] = T/C endpoint: mean survival time, dose: 100.0 mg/kg/injection, schedule: Q04DX003 (ip), vehicle: saline with Tween-80
[2] = T/C endpoint: mean survival time, dose: 200.0 mg/kg/injection, schedule: Q04DX003 (ip), vehicle: saline with Tween-80
[3] = T/C endpoint: mean survival time, dose: 400.0 mg/kg/injection, schedule: Q04DX003 (ip), vehicle: saline with Tween-80
[4] = T/C endpoint: mean survival time, dose: 25.0 mg/kg/injection, schedule: Q01DX009 (ip), vehicle: saline with Tween-80
[5] = T/C endpoint: mean survival time, dose: 50.0 mg/kg/injection, schedule: Q01DX009 (ip), vehicle: saline with Tween-80
[6] = T/C endpoint: mean survival time, dose: 100.0 mg/kg/injection, schedule: Q01DX009 (ip), vehicle: saline with Tween-80
[7] = T/C endpoint: mean survival time, dose: 100.0 mg/kg/injection, schedule: Q01DX009 (ip), vehicle: Klucel (hydroxypropylcellulose) (HPC)
[8] = T/C endpoint: mean survival time, dose: 200.0 mg/kg/injection, schedule: Q01DX009 (ip), vehicle: Klucel (hydroxypropylcellulose) (HPC)
[9] = T/C endpoint: mean survival time, dose: 200.0 mg/kg/injection, schedule: Q04DX002 (ip), vehicle: saline with Tween-80
[10] = T/C endpoint: mean survival time, dose: 200.0 mg/kg/injection, schedule: Q01DX001 (ip), vehicle: saline with Tween-80
[11] = T/C endpoint: mean survival time, dose: 200.0 mg/kg/injection, schedule: Q01DX009 (ip), vehicle: saline with Tween-80
[12] = T/C endpoint: mean survival time, dose: 400.0 mg/kg/injection, schedule: Q04DX002 (ip), vehicle: saline with Tween-80

`O=NNc1cnccn1` was tested, and the T/C (T/C endpoint: median survival time, dose: 17.0 mg/kg/injection, schedule: Q01DX009 (ip), vehicle: water, evaluated on day 30) was 133 % of control, the T/C (T/C endpoint: median survival time, dose: 17.0 mg/kg/injection, schedule: Q01DX009 (ip), vehicle: water, evaluated on day 60) was 145 % of control and the T/C (T/C endpoint: median survival time, dose: 24.0 mg/kg/injection, schedule: Q01DX009 (ip), vehicle: water) was 129 % of control. The T/C (T/C endpoint: median survival time, dose: 25.0 mg/kg/injection, schedule: Q01DX009 (ip), vehicle: water, evaluated on day 22) was 155 % of control, the T/C (T/C endpoint: median survival time, dose: 25.0 mg/kg/injection, schedule: Q01DX009 (ip), vehicle: water, evaluated on day 30) was 136 and 163 % of control and the T/C (T/C endpoint: median survival time, dose: 25.0 mg/kg/injection, schedule: Q01DX009 (ip), vehicle: water, evaluated on day 60) was 162 % of control. The T/C (T/C endpoint: median survival time, dose: 40.0 mg/kg/injection, schedule: Q01DX009 (ip), vehicle: water) was 148 % of control, the T/C (T/C endpoint: median survival time, dose: 50.0 mg/kg/injection, schedule: Q01DX009 (ip), vehicle: water) was 130 % of control and the T/C (T/C endpoint: median survival time, dose: 56.0 mg/kg/injection, schedule: Q01DX009 (ip), vehicle: water, evaluated on day 30) was 127 % of control. For the same compound, the T/C (T/C endpoint: median survival time, dose: 56.0 mg/kg/injection, schedule: Q01DX009 (ip), vehicle: water, evaluated on day 60) was 139 % of control.

For `COS(=O)(=O)c1ccc(Cl)c([N+](=O)[O-])c1`, the survivor count [1] was 3 of 6, the survivor count [2] was 0 of 6 and the survivor count [3] was 0 of 6.

In the case of `Nc1ccc2c(Cl)cc(Cl)cc2c1`, the survivor count [3] is reported as 0 of 6.

For `CCCNc1ncc(C(=O)O)c(=O)[nH]1`, the survivor count [4] was 1 of 6, the survivor count [5] was 0 of 6 and the survivor count [6] was 1 of 6.

With `NC(=O)c1ncn(C2OC(CO)C(O)C2O)c1O` (centres undefined) the T/C (T/C endpoint: mean survival time, dose: 12.5 mg/kg/injection, schedule: Q01DX009 (ip), vehicle: Klucel (hydroxypropylcellulose) (HPC)) was 125 and 125 % of control [5 of 6 alive], the T/C (T/C endpoint: mean survival time, dose: 25.0 mg/kg/injection, schedule: Q01DX009 (ip), vehicle: Klucel (hydroxypropylcellulose) (HPC)) was 130 % of control [5 of 6 alive] and the T/C (T/C endpoint: mean survival time, dose: 50.0 mg/kg/injection, schedule: Q01DX009 (ip), vehicle: Klucel (hydroxypropylcellulose) (HPC)) was 131, 133, 134 % of control. For the same compound, the T/C [7] was 134, 136, 139 % of control and the T/C [8] was 129 % of control.

For `COc1ccccc1[As](=O)(O)CC(O)COc1ccc(Cl)cc1Cl` (centres undefined), the survivor count (T/C endpoint: mean survival time, dose: 25.0 mg/kg/injection, schedule: Q04DX003 (ip), vehicle: saline) was 4 of 6.

`O=C(Oc1ccc(O)cc1)N(c1cccc2ccccc12)c1cccc2ccccc12` was tested, and the survivor count [9] was 3 of 3.

`Nc1nc(-c2cccc([N+](=O)[O-])c2)c(N=Nc2ccccc2Cl)s1` was tested, and the survivor count [10] was 6 of 6.

For `CCC(=O)NC1=CC(=O)c2ccccc2C1=O`, the survivor count [6] was 2 of 6.

With `CCCCCCCCCCCCNC(=O)c1ccc[n+](Cc2ccc(Cl)c(Cl)c2)c1` the survivor count [4] was 2 of 6, the survivor count [5] was 2 of 6 and the survivor count [1] was 1 of 6. For the same compound, the survivor count [2] was 0 of 6 and the survivor count [3] was 0 of 6.

In the case of `Cc1cc(=O)c(Cl)cc(=O)[nH]1`, the survivor count (T/C endpoint: mean survival time, dose: 50.0 mg/kg/injection, schedule: Q01DX001 (ip), vehicle: saline with Tween-80) is reported as 1 of 3.

`OCCN(CCO)c1ccc(O)cc1` was tested, and the survivor count (T/C endpoint: mean survival time, dose: 75.0 mg/kg/injection, schedule: Q01DX001 (ip), vehicle: saline) was 2 of 6, the survivor count (T/C endpoint: mean survival time, dose: 80.0 mg/kg/injection, schedule: Q01DX001 (ip), vehicle: saline) was 3 of 6 and the survivor count (T/C endpoint: mean survival time, dose: 150.0 mg/kg/injection, schedule: Q01DX001 (ip), vehicle: saline) was 2 of 6. For the same compound, the survivor count (T/C endpoint: mean survival time, dose: 300.0 mg/kg/injection, schedule: Q01DX001 (ip), vehicle: saline) was 0 of 6.

`NC(=S)N/N=C/c1cccc(CC(O)(C(F)(F)F)C(F)(F)F)n1` was tested, and the survivor count [1] was 6 of 6, the survivor count [2] was 6 of 6 and the survivor count [3] was 3 of 6.

In the case of `NC(CCCCNC(c1ccccc1)(c1ccccc1)c1ccccc1)C(=O)O` (centres undefined), the survivor count (T/C endpoint: mean survival time, dose: 200.0 mg/kg/injection, schedule: Q01DX009 (ip), vehicle: saline) is reported as 0 of 6, the survivor count (T/C endpoint: mean survival time, dose: 300.0 mg/kg/injection, schedule: Q01DX009 (ip), vehicle: saline) is reported as 0 of 6 and the survivor count (T/C endpoint: mean survival time, dose: 400.0 mg/kg/injection, schedule: Q01DX009 (ip), vehicle: saline) is reported as 0 of 6.

With `O=C(/C=C/c1cccnc1)/C=C/c1cccnc1` the survivor count (T/C endpoint: mean survival time, dose: 50.0 mg/kg/injection, schedule: Q04DX003 (ip), vehicle: acetone) was 3 of 6, the survivor count [1] was 6 of 6 and the survivor count [2] was 0 of 6. The survivor count [3] was 0 of 6.

With `Cc1nc2c(N)cc(Cl)cc2[nH]1` the survivor count (T/C endpoint: median survival time, dose: 200.0 mg/kg/injection, schedule: Q01DX005 (ip), vehicle: saline with Tween-80) was 4 of 6 and the survivor count (T/C endpoint: median survival time, dose: 400.0 mg/kg/injection, schedule: Q01DX005 (ip), vehicle: saline with Tween-80) was 0 of 6.

`O=C(Nc1ccc([N+](=O)[O-])cc1Cl)OCCc1ccccn1` was tested, and the T/C [6] was 87, 90 (2×), 95 % of control, the T/C [11] was 88 and 90 % of control [2 of 3 alive] and the survivor count [11] was 3 of 3 and 6 of 6. For the same compound, the survivor count (T/C endpoint: mean survival time, dose: 400.0 mg/kg/injection, schedule: Q01DX009 (ip), vehicle: saline with Tween-80) was 3 of 3 and 6 of 6.

In the case of `CSC(=C[N+](=O)[O-])SC`, the survivor count [7] is reported as 1 of 6, the survivor count [8] is reported as 0 of 6 and the survivor count (T/C endpoint: mean survival time, dose: 400.0 mg/kg/injection, schedule: Q01DX009 (ip), vehicle: Klucel (hydroxypropylcellulose) (HPC)) is reported as 0 of 6.

With `N=c1c2ncn(C3CCCC3)c2ncn1OCc1ccccc1` the survivor count (T/C endpoint: mean survival time, dose: 200.0 mg/kg/injection, schedule: Q01DX001 (ip), vehicle: other) was 0 of 6 and the survivor count (T/C endpoint: mean survival time, dose: 400.0 mg/kg/injection, schedule: Q01DX001 (ip), vehicle: other) was 0 of 6.

`Nc1ncnc2c1ncn2C(C=O)OC(C=O)CO` (centres undefined) was tested, and the T/C (T/C endpoint: mean survival time, dose: 70.0 mg/kg/injection, schedule: Q01DX001 (ip), vehicle: saline) was 141 % of control, the survivor count (T/C endpoint: mean survival time, dose: 140.0 mg/kg/injection, schedule: Q01DX001 (ip), vehicle: saline) was 4 of 7 and the survivor count (T/C endpoint: mean survival time, dose: 280.0 mg/kg/injection, schedule: Q01DX001 (ip), vehicle: saline) was 0 of 7.

With `N#CC1(Nc2ccccc2)CCCCC1` the survivor count (T/C endpoint: mean survival time, dose: 200.0 mg/kg/injection, schedule: Q01DX009 (ip), vehicle: other) was 2 of 6 and the survivor count [3] was 1 of 6.

In the case of `CCc1ccc(-n2cnc3c(=O)[nH]c(N)nc32)cc1`, the survivor count [10] is reported as 6 of 6.

`CCCCN1C(=O)C(=O)N(c2cc(Cl)c(OC)cc2OC)C1=O` was tested, and the survivor count [6] was 3 of 3 and the survivor count [11] was 3 of 3.

With `[Cl][Hg][c]1ccc2ccccc2c1` the survivor count (T/C endpoint: mean survival time, dose: 100.0 mg/kg/injection, schedule: Q04DX002 (ip), vehicle: saline with Tween-80) was 0 of 3, the survivor count [9] was 1 of 3 and the survivor count [12] was 0 of 3.

`CC(C)(C)c1ccc(-c2ccncc2)cc1` was tested, and the survivor count [12] was 0 of 3.
